# Results of single-concentration screens

Chains of the proteins cited; added tags and fusions are not shown. Residues count along the entry.
UniProt Q4DA54, 1-478: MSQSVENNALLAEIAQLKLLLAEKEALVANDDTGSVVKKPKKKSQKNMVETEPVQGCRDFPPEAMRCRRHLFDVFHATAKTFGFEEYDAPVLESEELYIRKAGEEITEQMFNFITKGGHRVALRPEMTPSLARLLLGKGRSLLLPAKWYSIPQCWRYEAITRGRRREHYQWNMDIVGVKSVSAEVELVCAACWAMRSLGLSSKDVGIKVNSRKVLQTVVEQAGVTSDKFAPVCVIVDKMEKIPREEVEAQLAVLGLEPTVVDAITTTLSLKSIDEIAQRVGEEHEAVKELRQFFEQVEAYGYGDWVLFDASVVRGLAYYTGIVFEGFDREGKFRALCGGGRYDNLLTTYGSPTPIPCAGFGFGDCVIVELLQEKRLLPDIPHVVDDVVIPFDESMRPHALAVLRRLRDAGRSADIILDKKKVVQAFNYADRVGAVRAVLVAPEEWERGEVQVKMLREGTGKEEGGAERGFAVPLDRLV
UniProt A4I591, 1-473: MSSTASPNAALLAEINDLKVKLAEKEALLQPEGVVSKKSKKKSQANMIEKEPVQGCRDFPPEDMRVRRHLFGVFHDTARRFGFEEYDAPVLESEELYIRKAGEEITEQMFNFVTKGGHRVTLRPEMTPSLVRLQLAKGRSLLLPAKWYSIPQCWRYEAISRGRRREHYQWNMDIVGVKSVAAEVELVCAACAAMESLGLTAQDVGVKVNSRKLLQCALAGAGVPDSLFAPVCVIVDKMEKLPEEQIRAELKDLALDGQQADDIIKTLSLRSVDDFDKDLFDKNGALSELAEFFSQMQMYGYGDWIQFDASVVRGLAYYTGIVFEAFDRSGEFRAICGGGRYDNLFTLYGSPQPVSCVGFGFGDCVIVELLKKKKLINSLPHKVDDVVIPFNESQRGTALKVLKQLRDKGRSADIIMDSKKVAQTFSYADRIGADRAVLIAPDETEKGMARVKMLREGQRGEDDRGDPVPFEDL
UniProt Q8IDJ8, 1-583: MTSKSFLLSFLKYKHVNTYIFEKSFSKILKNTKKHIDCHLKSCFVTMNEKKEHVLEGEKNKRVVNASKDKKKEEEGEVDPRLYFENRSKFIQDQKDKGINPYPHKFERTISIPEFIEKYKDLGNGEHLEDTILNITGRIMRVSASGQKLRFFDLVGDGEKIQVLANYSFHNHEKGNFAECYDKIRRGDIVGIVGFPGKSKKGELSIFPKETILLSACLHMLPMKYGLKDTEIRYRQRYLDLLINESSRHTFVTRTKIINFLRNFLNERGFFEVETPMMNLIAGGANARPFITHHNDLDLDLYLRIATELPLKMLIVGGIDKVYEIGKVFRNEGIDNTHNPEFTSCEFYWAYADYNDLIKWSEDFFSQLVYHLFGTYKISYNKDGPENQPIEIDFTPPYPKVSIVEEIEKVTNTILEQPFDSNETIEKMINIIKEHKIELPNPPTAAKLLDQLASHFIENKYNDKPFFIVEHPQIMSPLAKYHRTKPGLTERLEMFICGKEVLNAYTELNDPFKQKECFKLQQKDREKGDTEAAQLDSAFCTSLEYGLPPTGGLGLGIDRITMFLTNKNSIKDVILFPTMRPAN

Measurements from “University of Dundee, Small-Polar-MMV Screening Library” (2021), ChEMBL document CHEMBL3988442.

TcHisRS: 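Enzyme assay of histidyl-tRNA synthetase; the read-out is not stated. Target: Histidine-tRNA ligase, Trypanosoma cruzi CL Brener (UniProt Q4DA54). Concentration: 30 µM. The record gives no direction; compounds that gave an IC50 in retests scored well above the rest, so higher reads as stronger inhibition. About 69,000 compounds were tested under these conditions; 0.045% (about 31) showed 50% or more at least once.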
LiHisRS: 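Histidine-tRNA ligase, Leishmania infantum (UniProt A4I591). Enzyme assay of histidyl-tRNA synthetase; the read-out is not stated. Compounds at 30 µM. The record gives no direction; compounds that gave an IC50 in retests scored well above the rest, so higher reads as stronger inhibition. The assay is labelled LdHisRS but filed under L. infantum. Of about 69,000 compounds tested this way, about 410 (0.6%) reached 50% or more in at least one test.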
PfKRS1: 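Lysine-tRNA ligase, Plasmodium falciparum 3D7 (UniProt Q8IDJ8). Enzyme assay of the cytosolic lysyl-tRNA synthetase in 384-well plates, read by luminescence. Compounds at 30 µM. Direction is inferred from only a few compounds that gave an IC50; most scored high, so higher reads as stronger inhibition. Of about 69,000 compounds tested this way, about 49 (0.071%) reached 50% or more in at least one test.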

The filed quantity is “Percent Effect” (%).
How 0% and 100% were set is not recorded. Most values in the screen are low, and negative values occur.
This is an unselected part of the compounds tested.

SMILES,TcHisRS,LiHisRS,PfKRS1
COCCn1ccc(NC(=O)Nc2ccncc2)n1,2.5,16.98,3.672
Cn1c(CN2CCCc3cc(F)cc(F)c32)cc(=O)n(C)c1=O,10.1,26.6,15.63
Cc1ccc(CN(Cc2ncc[nH]2)C2CC(C)(C)NC(C)(C)C2)o1,-5.556,0,0.5674
c1cnc(N2CCC3(CCN(Cc4ccncc4)CC3)CC2)nc1,4.972,4.511,-1.758
OC1(CN2CCCC2)CCCN(Cc2cnc(-c3ccco3)nc2)C1 (stereo not given),6.627,6.593,-1.324
CCn1nc(CC(C)C)cc1C(=O)N1CCC(n2cnnc2)CC1,-1.087,18.18,2.635
CS(=O)(=O)N1CCOCC2(CN(Cc3ccco3)CCO2)C1 (stereo not given),0.8264,5.714,-1.864
O=C([C@H]1C[C@H]2OCC[C@H]2N(CCc2ccccc2)C1)N1CCCO1,12.75,12,1.858
CC1CCCN(Cc2c(C3CC3)n(CC(=O)N(C)C)c3ncccc23)C1 (stereo not given),0.7752,8.511,0.2432
COc1ccc(CN2CCCn3cnc(COC(C)C)c3C2)cc1,0.9852,0,-8.336
CCN(C)S(=O)(=O)N1CCCC(c2nc(-c3ccccc3)c[nH]2)C1 (stereo not given),3.409,11.67,-4.505
CC(CNC(=O)NCc1ccoc1)N1CCc2sccc2C1 (stereo not given),1.754,14.29,-1.726
COc1cc(N2CCC3(CCN(Cc4csc(C)n4)C3=O)C2)ncn1 (stereo not given),4.42,0.9009,7.198
CCN(CCO)Cc1ccc(Br)c2cccnc12,6.186,8.046,-0.2744
CCN(CC(=O)N(C)C)C(=O)C(C)(C)c1ccc2c(c1)OCCO2,9.211,2.5,-2.609
Cn1cc(C2(C)CN(C(=O)COc3ccccc3F)CCO2)cn1 (stereo not given),1.604,0.5236,-2.204
Cc1ccc(CN2CCOCC3(CCN(Cc4cccs4)C3)C2)o1 (stereo not given),9.524,6.944,1.038
CC1(C)CN(C(CNS(N)(=O)=O)c2ccc(Cl)cc2)CCO1 (stereo not given),6.077,0,1.516
CCN1CC2(CNCCN(C(=O)Nc3ccccc3)C2)CC1=O (stereo not given),4.854,13.59,0.2753
c1ccc(OCC2CC3(CCN(CC4CCOCC4)CC3)CO2)nc1 (stereo not given),-4.878,20.51,0.2301
CC(C)Cc1nc(CN2CCOC(Cn3cccn3)C2)no1 (stereo not given),2.305,17.86,-0.3093
COc1cccc2c1CCN(C(=O)NCc1nnc3ccccn13)C2,6.952,6.806,3.516
COC(=O)c1cccc(CNC(=O)NCCC(F)(F)F)c1,3.941,15.07,0.4925
Cc1nc(C)c(C(=O)N2CCCC2c2nc(O)cc(C(C)C)n2)s1 (stereo not given),5.224,-3.158,0.6068
COc1cccc(-c2cc(NCC(=O)O)nc3[nH]ccc23)n1,19.54,6.452,-0.4655
Cc1cc(CC(C)NC(=O)Cc2cc(F)ccc2C)[nH]n1 (stereo not given),12.65,17.58,1.998
COc1ccccc1OC1CCN(C(=O)CCCn2ccnc2)CC1,-1.093,5.263,0.203
CCN1C(=O)CC[C@]12CC[C@@H](NC(=O)c1cnccn1)CC2,-25.24,-55.77,-0.2529
c1csc(CN2CCO[C@H]3[C@H](OCCN4CCCC4)CC[C@@H]32)n1,4.184,16.04,1.576
Cc1nc(C)n(CC2CCCCN2CC(=O)N(C)Cc2ccco2)n1 (stereo not given),7.925,2.667,-1.017
CC(C)NC1CCc2c(ccc(=O)n2CC2CC2)C1 (stereo not given),7.143,11,4.925
CC(NC(=O)Nc1cccnc1N1CCOCC1)c1ccncc1 (stereo not given),6.863,10,4.107
CCCc1cc(C(=O)NC2CCCCNC2=O)[nH]n1 (stereo not given),5.556,14.53,1.672
CCOCC1CN(S(C)(=O)=O)Cc2nn(C)cc21 (stereo not given),-2.062,2,-1.461
CC1=N[C@@]2(CC[C@@H]3CN(CC(=O)N(C)C)C[C@@H]32)C(=O)N1CC1CC1,6.098,23.08,3.088
CSCCC(=O)N1CCC(CCC(=O)NCC2CCCO2)CC1 (stereo not given),4.103,-12.24,0.1777
FC(F)(F)CCc1ccnc(NC2CCOC2)n1 (stereo not given),3.226,-3.03,23.66
CC(C)OCCSc1nnnn1C1CCOCC1,2.299,8.065,1.029
CC(C)c1nccn1CCCNC(=O)c1ccc(-c2cnn(C)c2)nc1,1.087,15.15,-0.8478
Cc1ccc(C(=O)N2C[C@H]3CCC[C@@]3(COCc3ccncc3)C2)cn1,5.376,13.27,4.705
FC(F)(F)c1cc(C2CCCN(Cc3cccnc3)C2)n[nH]1 (stereo not given),5.455,17.78,-1.559
CC(=O)N1CCN(c2cncc(C3CCNCC3)n2)CC1,3.101,8.511,-0.5865
CCOCc1nn(CC2CC2)c2c1CN(C(=O)c1ccno1)CC2,-3.226,7.018,2.581

The last 4 entries again:

Cc1ccc(C(=O)N2C[C@H]3CCC[C@@]3(COCc3ccncc3)C2)cn1 gave TcHisRS: 5.376%; LiHisRS: 13.27%; PfKRS1: 4.705%.
FC(F)(F)c1cc(C2CCCN(Cc3cccnc3)C2)n[nH]1 (stereo not given) gave TcHisRS: 5.455%; LiHisRS: 17.78%; PfKRS1: -1.559%.
CC(=O)N1CCN(c2cncc(C3CCNCC3)n2)CC1 gave TcHisRS: 3.101%; LiHisRS: 8.511%; PfKRS1: -0.5865%.
CCOCc1nn(CC2CC2)c2c1CN(C(=O)c1ccno1)CC2 gave TcHisRS: -3.226%; LiHisRS: 7.018%; PfKRS1: 2.581%.